Here are results for 4 sequences from PMC12342889.

The chains behind the UniProt entries cited, without tags or fusion partners. Residues count along the entry.
UniProt O43347, 1-200 E180N/K182M: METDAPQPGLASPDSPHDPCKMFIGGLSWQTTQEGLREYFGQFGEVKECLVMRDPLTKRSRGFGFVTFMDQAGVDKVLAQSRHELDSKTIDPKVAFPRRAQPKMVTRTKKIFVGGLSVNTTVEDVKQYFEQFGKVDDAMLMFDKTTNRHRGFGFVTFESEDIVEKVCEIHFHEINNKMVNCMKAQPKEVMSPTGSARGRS
UniProt O43347, 1-200: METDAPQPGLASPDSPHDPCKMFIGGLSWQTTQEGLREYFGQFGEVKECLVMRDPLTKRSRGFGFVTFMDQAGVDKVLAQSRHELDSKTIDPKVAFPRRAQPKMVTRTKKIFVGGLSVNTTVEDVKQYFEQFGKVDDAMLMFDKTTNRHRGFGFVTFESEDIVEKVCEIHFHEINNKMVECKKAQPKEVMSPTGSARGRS
UniProt O43347, 1-200 F96P/R98P/E180N/K182M: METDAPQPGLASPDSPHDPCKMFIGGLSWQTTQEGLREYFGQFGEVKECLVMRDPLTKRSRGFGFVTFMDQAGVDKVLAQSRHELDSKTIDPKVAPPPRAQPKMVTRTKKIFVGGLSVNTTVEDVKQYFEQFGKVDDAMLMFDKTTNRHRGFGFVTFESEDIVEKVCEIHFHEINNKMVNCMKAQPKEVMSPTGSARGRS

Data set [1] concerns the target MSI-1 RRM1-2 DM E180N,K182M (Homo sapiens) (UniProt O43347). As to the kind of experiment: SPR. The following applies: KD2 bivalent, 1:2 model; SPR: biotinylated RNA immobilised; recombinant protein; residues 1-200; label: biotin for SPR, unlabelled for NMR.
Data set [2] has as its target MSI-1 RRM1-2 (Homo sapiens) (UniProt O43347). Briefly: NMR. The following applies: NMR: 50 mM Tris-HCl, 140 mM NaCl, 1 mM EDTA, 1 mM protease inhibitors, pH 7.2 (RRM1: pH 7.5), 298 K, recombinant protein, residues 1-200.
For data set [3], the target named is MSI-1 RRM1-2 DM E180N,K182M (Homo sapiens) (UniProt O43347). As to the kind of experiment: NMR. The following applies: second site weakened, heterogeneous; NMR: 50 mM Tris-HCl, 140 mM NaCl, 1 mM EDTA, 1 mM protease inhibitors, pH 7.2 (RRM1: pH 7.5), 298 K; recombinant protein; residues 1-200.
Data set [4] concerns the target MSI-1 RRM1-2 TM F96P,R98P,E180N,K182M (Homo sapiens) (UniProt O43347). Briefly: NMR. The following applies: fast exchange, only RRM2 involved; NMR: 50 mM Tris-HCl, 140 mM NaCl, 1 mM EDTA, 1 mM protease inhibitors, pH 7.2 (RRM1: pH 7.5), 298 K; recombinant protein; residues 1-200; label: biotin for SPR, unlabelled for NMR.

For some assays here: The comparison behind a weaker result is the experiment's own reference, which may not be listed here. For some assays here: Construct, isoform or probe ends are uncertain for at least one entry.

Turning to UUGUUAGUUACCCCUU [oligo-L2], the Kd in data set [1] was 10.6 µM.

Take UUGAUAGUUAGCAGGU [oligo-L3.2]: the binding result in data set [2] (slow exchange, split signals, text says weaker than L3, label: biotin for SPR, unlabelled for NMR) is listed as “binds more weakly”.

AAGCGAUAGUUAUGCAGGCGCUU [oligo-HP4.2]: the binding result in data set [2] (second site weakened, heterogeneous) is “binds more weakly”; in data set [3] it was “binds more weakly”.

As for UUGUUAGUUAUUAGUU [oligo-L3], the binding result in data set [4] is “binds more weakly”.
